Results published in patent publication US20250381204A1, “A CANNABINOID MIXTURE WITH TERPENES FOR THE TREATMENT OF ANXIETY” (priority 2022, published 2025).

Test system: larvae
Test: Forced light/dark transition assay screening hemp extracts, diazepam and caffeine (Example 5)
Format: in vivo, zebrafish
Details: last minute of baseline, dark
Experimental: Our forced light/dark transition protocol was as follows. First, there was 10 minutes of total darkness (which we refer to as the baseline period; compounds were introduced at the beginning of the baseline period, and 10 minutes were allotted to allow for drug absorption and acclimation). Next, there was a period of five minutes of light exposure followed by five minutes of dark exposure, repeated three times. Finally, there was an additional five minutes of dark exposure.
A variety of statistical techniques were used to address our hypotheses about the potential anxiolytic and anxiogenic effects of four compounds. In outline: • 1) Overall models were carried out using linear mixed-effect models • 2) Deliberate pairwise comparisons between controls and dosages of interest were carried out using appropriate two-sample comparison tests
All statistical analyses were carried out in R version 3.2.2 (R core developer team). Overall models were linear mixed-effects models (LMMs), and were fitted using the Ime4 package (Bates, Machler, Bolker, & Walker, 2015). Data were transformed as indicated to fit the assumptions of LMMs. Posthoc tests were performed using the multcomp package in R. Data distributions were initially assessed visually and model diagnostics were subsequently checked to assure appropriate fits. […]

CN1C(=O)CN=C(c2ccccc2)c2cc(Cl)ccc21 [diazepam]
dosage as predictor of mean distance moved after ~10 minutes of exposure (LMM): This model was significant
